In US20100158973A1 (HADASIT MEDICAL RESEARCH SERVICES & DEVELOPMENT LlIMITED, priority 2006, published 2010):

Test: Body weight before and 7 days after LAD ligation
Format: in vivo, rats
Details: CBD group, Day 7 after LAD ligation, 5 mg/kg IP daily

Cannabidiol [CBD] gave a Weight of 314.57±8.67 gr.
